Results published in the supplement of paper PMC10849652.
The list shows a part of the results.

The chains behind the UniProt entries cited, without tags or fusion partners. Where a name states a change or a piece, a line headed by the entry shows the natural chain unless it says otherwise.
UniProt Q00722, whole entry, looked up: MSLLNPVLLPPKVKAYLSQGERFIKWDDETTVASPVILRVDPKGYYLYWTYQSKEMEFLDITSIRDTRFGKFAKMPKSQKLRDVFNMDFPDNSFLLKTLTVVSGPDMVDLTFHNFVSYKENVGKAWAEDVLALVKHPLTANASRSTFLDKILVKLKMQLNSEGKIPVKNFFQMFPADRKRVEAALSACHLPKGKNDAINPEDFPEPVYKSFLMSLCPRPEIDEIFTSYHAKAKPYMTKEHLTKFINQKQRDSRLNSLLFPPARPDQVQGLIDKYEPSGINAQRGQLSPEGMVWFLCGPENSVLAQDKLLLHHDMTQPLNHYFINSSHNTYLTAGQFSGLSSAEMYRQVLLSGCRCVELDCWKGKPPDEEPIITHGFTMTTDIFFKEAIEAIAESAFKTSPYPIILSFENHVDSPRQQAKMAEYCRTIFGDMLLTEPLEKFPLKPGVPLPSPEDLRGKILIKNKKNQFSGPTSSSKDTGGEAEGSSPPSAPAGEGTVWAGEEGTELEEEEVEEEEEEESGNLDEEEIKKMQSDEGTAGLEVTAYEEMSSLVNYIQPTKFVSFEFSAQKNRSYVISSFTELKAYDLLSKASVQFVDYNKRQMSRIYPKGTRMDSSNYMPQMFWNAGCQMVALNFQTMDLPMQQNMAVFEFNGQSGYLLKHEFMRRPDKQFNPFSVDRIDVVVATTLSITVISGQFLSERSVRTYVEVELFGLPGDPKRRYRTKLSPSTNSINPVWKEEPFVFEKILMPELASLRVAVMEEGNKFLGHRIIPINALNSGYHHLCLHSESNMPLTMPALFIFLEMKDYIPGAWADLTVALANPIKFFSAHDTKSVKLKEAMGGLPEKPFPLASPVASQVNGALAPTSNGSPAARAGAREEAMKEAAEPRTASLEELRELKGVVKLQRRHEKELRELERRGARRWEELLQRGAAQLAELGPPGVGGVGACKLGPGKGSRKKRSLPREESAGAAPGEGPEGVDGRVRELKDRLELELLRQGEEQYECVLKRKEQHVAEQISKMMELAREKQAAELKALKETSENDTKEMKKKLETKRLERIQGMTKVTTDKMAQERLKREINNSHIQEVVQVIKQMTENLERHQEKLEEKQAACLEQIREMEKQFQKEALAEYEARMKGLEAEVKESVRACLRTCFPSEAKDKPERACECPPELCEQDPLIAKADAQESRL
UniProt Q8WXW3: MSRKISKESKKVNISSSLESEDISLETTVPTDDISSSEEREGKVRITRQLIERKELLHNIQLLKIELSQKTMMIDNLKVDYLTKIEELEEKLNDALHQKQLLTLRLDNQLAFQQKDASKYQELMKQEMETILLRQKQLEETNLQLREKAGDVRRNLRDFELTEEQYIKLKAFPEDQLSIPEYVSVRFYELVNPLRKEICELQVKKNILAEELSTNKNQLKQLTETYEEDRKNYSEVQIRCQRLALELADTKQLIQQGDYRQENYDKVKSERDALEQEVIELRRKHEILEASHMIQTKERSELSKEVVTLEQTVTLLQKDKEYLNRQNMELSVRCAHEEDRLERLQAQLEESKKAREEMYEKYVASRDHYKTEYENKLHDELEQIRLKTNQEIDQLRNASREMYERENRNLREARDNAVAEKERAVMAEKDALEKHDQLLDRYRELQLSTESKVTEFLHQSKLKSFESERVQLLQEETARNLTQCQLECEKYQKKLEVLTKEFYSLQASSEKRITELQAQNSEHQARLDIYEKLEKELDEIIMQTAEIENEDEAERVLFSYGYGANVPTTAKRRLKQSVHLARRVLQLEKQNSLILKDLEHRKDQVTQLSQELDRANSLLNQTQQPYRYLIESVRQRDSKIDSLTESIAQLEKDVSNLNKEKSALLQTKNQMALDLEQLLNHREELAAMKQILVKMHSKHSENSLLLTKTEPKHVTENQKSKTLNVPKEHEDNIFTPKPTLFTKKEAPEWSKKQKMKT
UniProt Q96S52: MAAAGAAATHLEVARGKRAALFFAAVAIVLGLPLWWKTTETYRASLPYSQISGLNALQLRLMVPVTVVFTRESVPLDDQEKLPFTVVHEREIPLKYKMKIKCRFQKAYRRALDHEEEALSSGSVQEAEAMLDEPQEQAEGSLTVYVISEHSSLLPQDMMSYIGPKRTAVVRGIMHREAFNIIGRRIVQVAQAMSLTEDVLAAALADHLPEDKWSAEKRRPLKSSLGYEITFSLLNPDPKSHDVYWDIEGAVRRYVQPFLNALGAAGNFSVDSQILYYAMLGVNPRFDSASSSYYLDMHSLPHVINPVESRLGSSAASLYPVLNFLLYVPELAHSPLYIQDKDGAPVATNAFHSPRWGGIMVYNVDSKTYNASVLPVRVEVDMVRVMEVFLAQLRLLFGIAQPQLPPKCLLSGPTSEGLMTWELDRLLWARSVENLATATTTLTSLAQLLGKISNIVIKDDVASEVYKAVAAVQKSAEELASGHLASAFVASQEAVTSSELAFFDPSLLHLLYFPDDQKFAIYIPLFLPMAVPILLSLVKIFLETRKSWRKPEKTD
UniProt Q8WUB8: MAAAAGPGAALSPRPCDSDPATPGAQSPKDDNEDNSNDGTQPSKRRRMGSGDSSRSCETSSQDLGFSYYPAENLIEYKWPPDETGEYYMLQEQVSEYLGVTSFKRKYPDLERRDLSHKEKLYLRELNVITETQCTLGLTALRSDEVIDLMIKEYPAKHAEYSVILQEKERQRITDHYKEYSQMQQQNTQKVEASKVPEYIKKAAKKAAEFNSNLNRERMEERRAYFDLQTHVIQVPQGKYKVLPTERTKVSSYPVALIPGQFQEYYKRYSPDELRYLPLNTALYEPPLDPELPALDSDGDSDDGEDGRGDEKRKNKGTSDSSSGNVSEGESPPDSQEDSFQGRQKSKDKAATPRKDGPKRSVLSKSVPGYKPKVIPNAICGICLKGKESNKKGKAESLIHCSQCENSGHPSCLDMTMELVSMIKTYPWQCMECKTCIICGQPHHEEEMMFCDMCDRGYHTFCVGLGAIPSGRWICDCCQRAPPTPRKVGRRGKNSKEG
UniProt Q9Y237, whole entry, looked up: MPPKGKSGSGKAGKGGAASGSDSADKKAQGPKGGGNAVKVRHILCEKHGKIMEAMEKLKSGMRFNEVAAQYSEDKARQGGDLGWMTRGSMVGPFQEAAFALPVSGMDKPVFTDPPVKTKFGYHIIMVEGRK
UniProt Q6PCE3: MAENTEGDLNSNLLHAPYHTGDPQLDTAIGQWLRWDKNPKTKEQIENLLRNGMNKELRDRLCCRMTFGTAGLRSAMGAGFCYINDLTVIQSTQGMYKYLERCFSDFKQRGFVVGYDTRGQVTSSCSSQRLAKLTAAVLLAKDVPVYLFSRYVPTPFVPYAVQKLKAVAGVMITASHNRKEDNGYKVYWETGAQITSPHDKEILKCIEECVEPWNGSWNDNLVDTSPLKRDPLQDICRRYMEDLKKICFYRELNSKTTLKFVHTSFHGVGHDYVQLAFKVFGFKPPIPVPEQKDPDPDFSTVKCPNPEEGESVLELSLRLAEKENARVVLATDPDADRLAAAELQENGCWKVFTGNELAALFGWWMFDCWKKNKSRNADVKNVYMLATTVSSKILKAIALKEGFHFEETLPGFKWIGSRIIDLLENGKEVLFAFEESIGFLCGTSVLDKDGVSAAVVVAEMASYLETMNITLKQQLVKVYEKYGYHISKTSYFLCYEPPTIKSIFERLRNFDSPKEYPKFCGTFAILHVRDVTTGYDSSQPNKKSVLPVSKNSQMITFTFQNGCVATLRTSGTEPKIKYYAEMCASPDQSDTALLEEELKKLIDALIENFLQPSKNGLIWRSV
UniProt Q969N2: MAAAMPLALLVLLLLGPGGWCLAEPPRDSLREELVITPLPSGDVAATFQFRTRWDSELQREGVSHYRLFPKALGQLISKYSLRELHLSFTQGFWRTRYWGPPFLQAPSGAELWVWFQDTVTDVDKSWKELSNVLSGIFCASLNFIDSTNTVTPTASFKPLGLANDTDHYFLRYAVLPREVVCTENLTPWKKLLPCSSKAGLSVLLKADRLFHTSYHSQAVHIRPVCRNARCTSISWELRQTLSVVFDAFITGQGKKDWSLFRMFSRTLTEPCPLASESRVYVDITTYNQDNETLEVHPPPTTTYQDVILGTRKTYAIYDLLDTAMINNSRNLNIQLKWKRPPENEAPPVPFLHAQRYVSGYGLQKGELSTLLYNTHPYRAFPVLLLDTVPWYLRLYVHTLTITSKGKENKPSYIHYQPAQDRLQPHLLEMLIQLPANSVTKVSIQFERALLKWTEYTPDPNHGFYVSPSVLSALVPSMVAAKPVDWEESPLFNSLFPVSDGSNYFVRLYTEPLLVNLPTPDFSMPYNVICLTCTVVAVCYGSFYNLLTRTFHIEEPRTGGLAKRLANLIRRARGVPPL
UniProt A6NDG6: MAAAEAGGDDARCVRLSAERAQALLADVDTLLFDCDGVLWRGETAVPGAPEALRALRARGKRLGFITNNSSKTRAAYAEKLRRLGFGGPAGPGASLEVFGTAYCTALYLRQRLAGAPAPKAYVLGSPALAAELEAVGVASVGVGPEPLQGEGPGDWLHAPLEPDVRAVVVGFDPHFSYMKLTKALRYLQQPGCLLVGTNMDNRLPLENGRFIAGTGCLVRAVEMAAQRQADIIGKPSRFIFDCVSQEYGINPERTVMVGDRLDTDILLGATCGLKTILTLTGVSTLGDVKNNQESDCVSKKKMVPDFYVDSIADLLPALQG

What was measured:
Assay in all cases: log2 fold change, soluble protein after heating vs DMSO (PISA); higher = thermal stabilisation; K562 lysate, 10 uM; active = over 0.2 and 3.5 SD of the protein, either way, in both replicates (recomputed)
vemurafenib = compound: CCCS(=O)(=O)Nc1ccc(F)c(C(=O)c2c[nH]c3ncc(-c4ccc(Cl)cc4)cc23)c1F [vemurafenib]
Summary of the method: (§1)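 Quantification was by TMTpro 16plex LC-MS/MS with equalised channel sums, applied to the supernatant after 21,000xg for 90 min. Samples were crude K562 extract at 1 mg/mL protein in PBS pH 7.4 with 1 mM MgCl2, treated with 10 μM compound for 30 min, heated for 3 min across 48°C-58°C, pooled and brought to 0.5% NP-40 at 4°C. Values are log-two fold changes in thermal stability relative to solvent controls, from duplicates.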

[1] = compound: CCCS(=O)(=O)Nc1ccc(F)c(C(=O)c2c[nH]c3ncc(Cl)cc23)c1F
Summary of the method: as §1

barasertib = compound: CCN(CCCOc1ccc2c(Nc3cc(CC(=O)Nc4cccc(F)c4)[nH]n3)ncnc2c1)CCOP(=O)(O)O [barasertib]
Summary of the method: as §1

[2] = compound: CC[C@@H]1C(=O)N(C)c2cnc(Nc3ccc(C(=O)NC4CCN(C)CC4)cc3OC)nc2N1C1CCCC1
Summary of the method: as §1

volasertib = compound: CC[C@@H]1C(=O)N(C)c2cnc(Nc3ccc(C(=O)N[C@H]4CC[C@H](N5CCN(CC6CC6)CC5)CC4)cc3OC)nc2N1C(C)C [volasertib]
Summary of the method: as §1

[3] = compound: CCn1c(C(=O)N(C2CC2)C2CC2)cc2c3c(ncn3C)c(Nc3cc(C)n(C)n3)nc21
Summary of the method: as §1

[4] = compound: CCn1cc(-c2ccnc3[nH]c(-c4cccc(CN(C)C)c4)cc23)c(-c2ccc(NC(=O)N(C)C)cc2)n1
Summary of the method: as §1

[5] = compound: CN1CCC(CNc2ccc3ncc(-c4cccc(OC(F)(F)F)c4)n3n2)CC1
Summary of the method: as §1

saracatinib = compound: CN1CCN(CCOc2cc(OC3CCOCC3)c3c(Nc4c(Cl)ccc5c4OCO5)ncnc3c2)CC1 [saracatinib]
Summary of the method: as §1

sotrastaurin = compound: CN1CCN(c2nc(C3=C(c4c[nH]c5ccccc45)C(=O)NC3=O)c3ccccc3n2)CC1 [sotrastaurin]
Summary of the method: as §1

alvocidib = compound: CN1CC[C@H](c2c(O)cc(O)c3c(=O)cc(-c4ccccc4Cl)oc23)[C@H](O)C1 [alvocidib]
Summary of the method: as §1

Tubastatin A = compound: CN1CCc2c(c3ccccc3n2Cc2ccc(C(=O)NO)cc2)C1 [Tubastatin A]
Summary of the method: as §1

[6] = compound: CNC(=O)C1=CC=CC=C1NC2=NC(=NC=C2Cl)NC3=C(C=C(C=C3)N4CCOCC4)OC
Summary of the method: as §1

defactinib = compound: CNC(=O)c1ccc(Nc2ncc(C(F)(F)F)c(NCc3nccnc3N(C)S(C)(=O)=O)n2)cc1 [defactinib]
Summary of the method: as §1

[7] = compound: CNc1nc(-c2ccc3c(N)n[nH]c3c2)cc(N2C[C@@H](C(=O)NC3CCCCC3)CC[C@H]2C)n1
Summary of the method: as §1

encorafenib = compound: COC(=O)N[C@@H](C)CNc1nccc(-c2cn(C(C)C)nc2-c2cc(Cl)cc(NS(C)(=O)=O)c2F)n1 [encorafenib]
Summary of the method: as §1

[8] = compound: COC(=O)[C@H](CCSC)NC(=O)C1=C(C=C(C=C1)NC[C@H](CS)N)C2=CC=CC=C2
Summary of the method: as §1

alisertib = compound: COc1cc(Nc2ncc3c(n2)-c2ccc(Cl)cc2C(c2c(F)cccc2OC)=NC3)ccc1C(=O)O [alisertib]
Summary of the method: as §1

[9] = compound: COc1cc2nc(-c3cc(F)ccc3O)nc(N[C@@H]3CNC[C@H]3C(C)(C)O)c2cc1OC
Summary of the method: as §1

gefitinib = compound: COc1cc2ncnc(Nc3ccc(F)c(Cl)c3)c2cc1OCCCN1CCOCC1 [gefitinib]
Summary of the method: as §1

Measured: log2 fold change

PLCB2 (UniProt Q00722)
inactive: vemurafenib 0.023 | [1] 0.017 | barasertib 0.142 | [2] 0.02 | volasertib 0.008 | [3] 0.063 | [4] -0.003 | [5] 0.02 | saracatinib -0.09 | sotrastaurin 0.037 | alvocidib 0.136 | Tubastatin A 0.145 | [6] 0.019 | defactinib 0.009 | [7] 0.015 | encorafenib 0.011 | [8] 0.083 | alisertib 0.071 | [9] -0.014 | gefitinib -0.128

PIBF1 (UniProt Q8WXW3)
inactive: vemurafenib 0.265 | [1] 0.065 | barasertib 0.046 | [2] -0.001 | volasertib 0.007 | [3] 0.087 | [4] -0.025 | [5] 0.029 | saracatinib 0.007 | sotrastaurin -0.003 | alvocidib 0 | Tubastatin A -0.058 | [6] 0.02 | defactinib 0.039 | [7] -0.089 | encorafenib 0.048 | [8] -0.146 | alisertib -0.01 | [9] -0.158 | gefitinib -0.011

PIGS (UniProt Q96S52)
inactive: vemurafenib 0.008 | [1] 0.015 | barasertib 0.05 | [2] 0.109 | volasertib -0.039 | [3] 0.023 | [4] -0.027 | [5] -0.006 | saracatinib -0.001 | sotrastaurin -0.04 | alvocidib 0.005 | Tubastatin A -0.004 | [6] -0.03 | defactinib -0.028 | [7] -0.001 | encorafenib 0.019 | [8] 0.03 | alisertib -0.014 | [9] -0.026 | gefitinib -0.044

PHF10 (UniProt Q8WUB8)
inactive: vemurafenib 0.038 | [1] -0.01 | barasertib -0.047 | [2] -0.012 | volasertib 0.016 | [3] -0.107 | [4] -0.038 | [5] 0.029 | saracatinib -0.015 | sotrastaurin -0.013 | alvocidib 0.002 | Tubastatin A -0.035 | [6] 0.053 | defactinib -0.025 | [7] -0.048 | encorafenib 0.044 | [8] 0.068 | alisertib 0.042 | [9] -0.006 | gefitinib -0.077

PIN4 isoform 2 (UniProt Q9Y237)
inactive: vemurafenib 0.008 | [1] -0.01 | barasertib 0.01 | [2] 0.057 | volasertib 0.022 | [3] -0.067 | [4] -0.067 | [5] 0.011 | saracatinib 0.023 | sotrastaurin 0.058 | alvocidib 0.005 | Tubastatin A 0.033 | [6] -0.013 | defactinib 0 | [7] 0.017 | encorafenib -0.02 | [8] -0.034 | alisertib -0.037 | [9] -0.016 | gefitinib -0.023

PGM2L1 (UniProt Q6PCE3)
inactive: vemurafenib 0.017 | [1] 0.003 | barasertib 0 | [2] 0.002 | volasertib 0.015 | [3] -0.044 | [4] -0.048 | [5] 0.029 | saracatinib -0.034 | sotrastaurin 0.025 | alvocidib -0.027 | Tubastatin A 0.016 | [6] -0.046 | defactinib -0.028 | [7] -0.012 | encorafenib 0.002 | [8] 0.046 | alisertib 0.004 | [9] -0.004 | gefitinib 0.029

PIGT (UniProt Q969N2)
inactive: vemurafenib 0.05 | [1] 0.02 | barasertib 0.014 | [2] -0.026 | volasertib -0.013 | [3] 0 | [4] -0.097 | [5] 0.01 | saracatinib 0.012 | sotrastaurin 0.014 | alvocidib 0.003 | Tubastatin A 0.013 | [6] -0.073 | defactinib -0.036 | [7] -0.002 | encorafenib -0.005 | [8] -0.049 | alisertib 0.047 | [9] -0.094 | gefitinib 0.053

PGP (UniProt A6NDG6)
inactive: vemurafenib 0.014 | [1] 0.153 | barasertib -0.017 | [2] -0.005 | volasertib 0.009 | [3] 0.037 | [4] -0.018 | [5] 0.05 | saracatinib -0.034 | sotrastaurin -0.036 | alvocidib -0.023 | Tubastatin A 0.024 | [6] -0.019 | defactinib 0.016 | [7] 0.034 | encorafenib -0.009 | [8] -0.047 | alisertib -0.045 | [9] -0.052 | gefitinib -0.077
